Here are results for 80 molecules from paper PMC12040169 (PLOS Biology, 2025).

This is one part of the list.

The test relates to T1, CTL2-GFP (C. trachomatis L2/434/Bu, GFP-expressing).
T1 construct: L2/434/Bu, GFP-expressing
The arrangement: species or system HeLa; Intracellular C. trachomatis growth in HeLa cells, bulk GFP fluorescence relative to DMSO. To be noted: bulk GFP, single well; 28.5 h, 10 µM; inhibitor.
On to `O=C(Nc1ccc(Cc2ccncc2)cc1)c1cc([N+](=O)[O-])n[nH]1` [CBK269157], for which the “% of control remaining” value came out at 124.304%.

Regarding `O=C(O)/C=C\C(=O)Nc1cccc(NC(=O)c2cccs2)c1` [CBK263952], the “% of control remaining” value is 100%.

Regarding `CCn1c2cc(C)oc2c2cnn(CC(=O)N(C)C)c(=O)c21` [CBK284224], the “% of control remaining” value was 127.566%.

On to `Cc1nc(-c2ccccc2)sc1CNC(=O)C(C)c1ccc([N+](=O)[O-])cc1` (centres unmarked) [CBK092364], for which the “% of control remaining” value worked out at 71.7798%.

Regarding `Cn1cccc1CN1C[C@H]2CC[C@]3(NC(=O)c4ccccc4N3)[C@H]2C1` [CBK284443], the “% of control remaining” value came to 124.697%.

Take `O=C(c1cccc(C(=O)N(Cc2ccccc2)c2ccccn2)c1)N(Cc1ccccc1)c1ccccn1` [CBK091794]: the “% of control remaining” value amounted to 91.6111%.

As for `Cc1ccc(NC(=O)c2ccccc2)s1` [CBK086724], the “% of control remaining” value was determined as 105.564%.

In the case of `Cc1cc(C)nc(NS(=O)(=O)c2ccc(OC(F)(F)F)cc2)c1` [CBK044711], the “% of control remaining” value was found to be 135.111%.

Consider `CCC(CC)C(=O)Nc1nc(OC)cnc1-c1ccc(OCOC)cc1` [CBK145207], for which the “% of control remaining” value is 101.757%.

Consider `c1ccc(Nc2cncc(N3CCNCC3)n2)cc1` [CBK013389], for which the “% of control remaining” value amounted to 90.94%.

As for `COc1ccc(N2CCN(/C(=N\S(=O)(=O)c3ccc(C)cc3)Nc3nc(C)cc(C)n3)CC2)cc1` [CBK266564], the “% of control remaining” value is listed as 142.788%.

Consider `Cn1cc(C(=O)N2CCCC3(C/C=C/COc4ccccc4C(=O)NCCNC3=O)C2)cn1` (centres unmarked) [CBK292102], for which the “% of control remaining” value is recorded as 146.865%.

Regarding `Cn1nc(C2CC2)cc1C(=O)NCCN1CCc2ccccc21` [CBK282138], the “% of control remaining” value was 106.8%.

Consider `Cc1nc(=O)c(-c2ccccc2)c(C)n1CCCCCC(=O)O` [CBK287060], for which the “% of control remaining” value turned out to be 117.744%.

As for `O=C(Cn1cccc(C(=O)NC2CCCCC2)c1=O)NCC1(c2ccccc2Cl)CC1` [CBK286054], the “% of control remaining” value is recorded as 142.743%.

As for `COC[C@@H]1CCCN1S(=O)(=O)c1cccs1` [CBK045239], the “% of control remaining” value was found to be 150.776%.

Turning to `CCN(C(=O)c1cnc2n(c1=O)CCS2)c1ccccc1` [CBK287384], the “% of control remaining” value was 106.651%.

For the molecule `OCC1CCN(Cc2cnn(C3CCCCC3)c2)C1` (centres unmarked) [CBK283086], the “% of control remaining” value is on record as 137.608%.

Regarding `O=C(Cn1ccc2ccnc(-c3cccs3)c21)N1CCNCC1` [CBK284733], the “% of control remaining” value was 127.321%.

Turning to `Cc1nn(-c2ccccc2)c2sncc12` [CBK006869], the “% of control remaining” value was 92.4224%.

`CCCC/C=C/c1cn2ccnc2c(Nc2ccc(OC)nc2)n1` [CBK038089]: the “% of control remaining” value is 156.473%.

`Cc1nc2c(C(=O)NCCOCCO)cnn2c(C)c1Cc1ccc(F)c(Cl)c1` [CBK167457]: the “% of control remaining” value is listed as 78.3793%.

Consider `CCCc1c(O)n[nH]c1Cc1ccc(Cl)cc1` [CBK078564], for which the “% of control remaining” value was 96.641%.

Turning to `Cc1cc(Br)c(NCC(=O)N/N=C/c2ccc(O)cc2)c(Br)c1` [CBK263506], the “% of control remaining” value was 63.2727%.

Take `O=C(C1CC1)N1C2CCC1Cn1c(nc3ccccc3c1=O)C2` (centres unmarked) [CBK284451]: the “% of control remaining” value stood at 119.289%.

As to `COc1ccc(-c2n[nH]c(=S)n2CC(=O)Nc2nc(-c3ccc(C)cc3C)cs2)cc1` [CBK295316], the “% of control remaining” value came out at 104.744%.

Regarding `Cc1cc(NC(=O)c2cncnc2)c2ccccc2n1` [CBK122734], the “% of control remaining” value is given as 86.2983%.

As for `Cc1nc2c(c(=O)[nH]1)CN(Cc1ccc(Cl)c(Cl)c1)CC2` [CBK283949], the “% of control remaining” value came to 147.986%.

`CNC(=O)C1(Cc2ccccc2-c2cccs2)CCN(C(=O)c2ccccc2OC)CC1` [CBK285685]: the “% of control remaining” value stood at 125.717%.

For the molecule `Cc1ccc(C(N)=O)c(OCC(=O)N2c3ccccc3CCC2C)c1` (centres unmarked) [CBK295633], the “% of control remaining” value is 132.334%.

In the case of `COc1ccccc1Nc1nc(N)nc(CSCCO)n1` [CBK266679], the “% of control remaining” value is listed as 170.433%.

As to `CCCc1cc(C(=O)N(C)CCOc2ccccc2)[nH]n1` [CBK283162], the “% of control remaining” value is 124.527%.

For the molecule `CNC(=O)C1(Cc2ccc(-c3ccccc3)cc2)CCN(C(=O)c2ccccc2)CC1` [CBK285761], the “% of control remaining” value is listed as 123.955%.

Consider `COc1ccccc1NC(=O)CN(c1ccc(C)cc1)S(=O)(=O)c1ccc(F)cc1` [CBK262718], for which the “% of control remaining” value is listed as 84.2653%.

For the molecule `COc1cccc(-n2nnc3c(SCC(N)=O)ncnc32)c1` [CBK287543], the “% of control remaining” value amounted to 125.514%.

Regarding `Cc1ccc(OCC(=O)NCC(c2cccs2)N2CCOCC2)cc1C` (centres unmarked) [CBK306143], the “% of control remaining” value is 103.745%.

As to `Cc1cccnc1NC(=O)c1cc(O)nc2ccccc12` [CBK300499], the “% of control remaining” value is reported as 135.137%.

`Cc1nn(-c2ccccc2)c(Cl)c1CN1C(=O)NC2(CCCCC2)C1=O` [CBK306043]: the “% of control remaining” value is reported as 123.123%.

As for `O=C1Oc2nc3ccccc3cc2CN1C1CC1` [CBK282870], the “% of control remaining” value stood at 3.057%.

As for `O=C(C1C2CCCCC21)N1CCC(Oc2cccc(F)c2)CC1` (centres unmarked) [CBK282216], the “% of control remaining” value is 117.895%.

`Clc1ccc(Cl)c(-c2nc3ccccc3o2)n1` [CBK095353]: the “% of control remaining” value came to 115.445%.

As to `O=C(NC1CCCCC1)N[C@H]1CO[C@H]2[C@@H]1OC[C@@H]2Nc1nccc(C2CCCC2)n1` [CBK289531], the “% of control remaining” value is 118.095%.

For the molecule `CCCCc1cc(=O)[nH]c(NCc2ccc(C(F)(F)F)cc2)n1` [CBK003946], the “% of control remaining” value was 93.6183%.

In the case of `CC1CCCN(C(=O)CCn2c(-c3ccncc3)cc3cccnc32)C1` (centres unmarked) [CBK282152], the “% of control remaining” value amounted to 127.6%.

For the molecule `Cc1nccn1CC1CCCN(Cc2ccnc3ccccc23)C1` (centres unmarked) [CBK281966], the “% of control remaining” value is given as 159.549%.

For `Cc1ccc(C2=NO[C@@](CC(=O)O)(C(=O)Nc3ccc4c(c3)OCCO4)C2)cc1` [CBK286653], the “% of control remaining” value was 128.8%.

Regarding `CC(C)Cc1cc(CNS(=O)(=O)Cc2ccccc2F)on1` [CBK281505], the “% of control remaining” value is listed as 114.52%.

`COC(=O)N1CCCCC1C(=O)NCCc1nc(C)cc(C(F)(F)F)n1` (centres unmarked) [CBK306752]: the “% of control remaining” value was 141.491%.

`c1cnc(N2CCCC2)c(OCc2ccsc2)n1` [CBK115664]: the “% of control remaining” value was 109.841%.

On to `COc1cc(C2N(Cc3ccccc3)CCN2Cc2ccccc2)ccc1OC(C)=O` [CBK261349], for which the “% of control remaining” value is listed as 100%.

Consider `CC(C)OCC1CN(c2cc(CO)c(F)cn2)CCO1` (centres unmarked) [CBK304755], for which the “% of control remaining” value was 125.816%.

For the molecule `Cc1ccc(-c2c(C(=O)NNC(=S)NCC3CCCO3)csc2C)cc1` (centres unmarked) [CBK267062], the “% of control remaining” value was 131.939%.

As to `c1ccc(OCCN2CCCN(c3nccc(OCCN4CCOCC4)n3)CC2)cc1` [CBK083940], the “% of control remaining” value is listed as 102.134%.

Regarding `COCCN(Cc1cnn(C)c1)C(=O)c1cc(=O)c2cccc(F)c2[nH]1` [CBK306651], the “% of control remaining” value turned out to be 162.473%.

For `O=C(CCOc1ccccc1)Nc1c(F)cc(F)cc1OC1CCNCC1` [CBK045897T], the “% of control remaining” value is 126.233%.

Turning to `O=C(c1cc(F)c(F)cc1F)N1CCC2(CCCN(Cc3ccc4ccccc4c3)C2)C1` (centres unmarked) [CBK131998], the “% of control remaining” value is given as 113.092%.

As for `O=C(CCS(=O)(=O)c1ccccc1)Nc1cncc(OC2CCNCC2)n1` [CBK028438T], the “% of control remaining” value came to 93.387%.

For the molecule `CCn1cc(-c2cncn2CCCN2CCCCC2)cn1` [CBK281767], the “% of control remaining” value was 151.543%.

With `O=C(/C=C\c1ccco1)Oc1ccc(/C=N\NC(=O)c2cncc(Br)c2)cc1` [CBK261385], the “% of control remaining” value is reported as 120.91%.

Turning to `Cc1ccc2[nH]cc(CCNC(=O)c3cccc(NC(=O)c4ccccc4)c3)c2c1` [CBK269235], the “% of control remaining” value turned out to be 137.043%.

As for `CCC(Oc1ccccc1F)C(=O)Nc1cc(C)on1` (centres unmarked) [CBK305558], the “% of control remaining” value is on record as 119.189%.

On to `Cc1nn([C@H]2C[C@@H](O)[C@@H](CO)O2)c(=O)[nH]c1=O` [CBK201185], for which the “% of control remaining” value came out at 137.018%.

With `CCC(CO)Nc1cncc(-c2cccc(C(F)(F)F)c2)n1` (centres unmarked) [CBK065783], the “% of control remaining” value came out at 113.298%.

On to `CCCC(SCC)C(N)=O` (centres unmarked) [CBK020895], for which the “% of control remaining” value is 129.521%.

As for `Cc1c(Cl)c(C(=O)N[C@@H]2CCN(Cc3ccccn3)C[C@H]2O)nn1C` [CBK306676], the “% of control remaining” value was 143.181%.

Consider `CCC(=O)NCc1ccc(-c2nc3ncccc3o2)cc1` [CBK270220], for which the “% of control remaining” value was found to be 82.9112%.

Consider `Cc1nc(-c2cc(Cl)c(Cl)s2)cs1` [CBK009801], for which the “% of control remaining” value is on record as 127.367%.

Regarding `COc1ccc2c(c1)Cc1sc(NC(C)=O)nc1-2` [CBK287876], the “% of control remaining” value is given as 117.818%.

Turning to `CC(=O)Oc1cccc(CN2CCCN(S(=O)(=O)c3ccc(-c4ccccc4)cc3)CC2)c1` [CBK063113], the “% of control remaining” value is 133.27%.

For the molecule `O=C(c1cscn1)N1CCC2(CCCNC2)C1` (centres unmarked) [CBK153230C], the “% of control remaining” value turned out to be 115.418%.

For `COc1cc(CCN2CCCCC2)c(C(C)n2cncn2)cc1OC` (centres unmarked) [CBK023837G], the “% of control remaining” value was found to be 107.297%.

For `COc1ccc(OCCNC(=O)c2ccc(-c3cccc(N(C)C)c3)nc2N(C)C(C)=O)cc1` [CBK076587], the “% of control remaining” value amounted to 111.813%.

For `O=C(NCc1cccnc1)c1ccc2c(c1)C(=O)N(Cc1ccco1)C2=O` [CBK269675], the “% of control remaining” value turned out to be 146.677%.

For `CCc1nc(N)nc(N2CCCC3(CN(C)C(=O)O3)C2)c1C` (centres unmarked) [CBK306914], the “% of control remaining” value was 119.99%.

As to `COc1cc(/C=C2/C(=O)N(c3nnn[nH]3)N=C2C)ccc1OC(=O)c1cccs1` [CBK266641], the “% of control remaining” value is recorded as 109.434%.

On to `CCOC(=O)CN1CCN(c2cc(C#N)ccn2)CC1` [CBK306006], for which the “% of control remaining” value came out at 123.204%.

Turning to `CC(C)Oc1ccc(-c2cc(C(=O)NCc3ccncc3)c3ccccc3n2)cc1` [CBK293957], the “% of control remaining” value is given as 111.134%.

Take `CN(C)S(=O)(=O)N1CC2(CCN(C(=O)[C@@H]3CN(C(=O)C(C)(C)NC(=O)OC(C)(C)C)C[C@H]3c3cc4ccccc4o3)CC2)c2ccccc21` [CBK014088]: the “% of control remaining” value was determined as 82.1879%.

With `CCN(Cc1ccncc1)C(=O)NCC1CCCCC1` [CBK155132], the “% of control remaining” value is 112.905%.

As for `COc1ccccc1N(CC(O)CN1C(=O)NC(C)(C)C1=O)S(=O)(=O)c1ccc(C)cc1` (centres unmarked) [CBK263581], the “% of control remaining” value is reported as 113.48%.
